The values that follow come from paper PMC6576150.

Amino acid sequences for entries named in this document (tags omitted). A change or cut given only in a name is not applied to a line headed by its entry.
UniProt Q8K4B0: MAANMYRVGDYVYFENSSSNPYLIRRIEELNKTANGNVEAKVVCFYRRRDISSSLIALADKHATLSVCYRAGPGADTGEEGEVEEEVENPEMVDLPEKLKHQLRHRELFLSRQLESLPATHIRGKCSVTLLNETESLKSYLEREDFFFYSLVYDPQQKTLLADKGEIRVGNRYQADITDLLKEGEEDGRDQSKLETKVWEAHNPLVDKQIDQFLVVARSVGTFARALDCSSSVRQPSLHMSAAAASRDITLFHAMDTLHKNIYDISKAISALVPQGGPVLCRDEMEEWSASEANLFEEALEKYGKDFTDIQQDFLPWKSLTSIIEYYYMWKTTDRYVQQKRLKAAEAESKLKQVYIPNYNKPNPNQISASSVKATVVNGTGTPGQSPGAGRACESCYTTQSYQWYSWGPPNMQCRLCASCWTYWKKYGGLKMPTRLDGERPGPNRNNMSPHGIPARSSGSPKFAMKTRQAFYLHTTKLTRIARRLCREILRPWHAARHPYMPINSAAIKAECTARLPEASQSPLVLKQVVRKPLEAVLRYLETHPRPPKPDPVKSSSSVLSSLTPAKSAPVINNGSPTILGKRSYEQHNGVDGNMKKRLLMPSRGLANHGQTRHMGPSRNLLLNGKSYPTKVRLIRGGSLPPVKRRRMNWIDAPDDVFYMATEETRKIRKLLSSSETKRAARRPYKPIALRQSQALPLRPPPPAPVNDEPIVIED
UniProt Q9R190: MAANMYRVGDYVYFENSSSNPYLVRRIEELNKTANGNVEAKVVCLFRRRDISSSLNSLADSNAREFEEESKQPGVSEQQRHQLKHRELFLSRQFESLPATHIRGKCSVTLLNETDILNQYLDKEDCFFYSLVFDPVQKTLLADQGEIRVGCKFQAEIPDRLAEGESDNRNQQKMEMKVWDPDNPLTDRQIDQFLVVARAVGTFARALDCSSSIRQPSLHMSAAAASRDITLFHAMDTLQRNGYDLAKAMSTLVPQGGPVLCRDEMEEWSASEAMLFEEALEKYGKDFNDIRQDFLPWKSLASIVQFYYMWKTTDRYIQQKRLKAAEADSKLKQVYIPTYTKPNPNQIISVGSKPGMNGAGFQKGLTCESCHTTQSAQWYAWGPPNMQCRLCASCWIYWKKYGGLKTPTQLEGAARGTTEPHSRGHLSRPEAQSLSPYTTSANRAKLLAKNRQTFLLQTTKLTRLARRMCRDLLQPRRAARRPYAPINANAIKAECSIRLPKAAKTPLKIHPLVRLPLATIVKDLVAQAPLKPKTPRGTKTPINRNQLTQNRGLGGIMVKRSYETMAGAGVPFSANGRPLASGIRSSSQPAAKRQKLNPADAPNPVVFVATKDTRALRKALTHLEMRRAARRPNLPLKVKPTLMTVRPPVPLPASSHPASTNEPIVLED
UniProt Q6PDQ2: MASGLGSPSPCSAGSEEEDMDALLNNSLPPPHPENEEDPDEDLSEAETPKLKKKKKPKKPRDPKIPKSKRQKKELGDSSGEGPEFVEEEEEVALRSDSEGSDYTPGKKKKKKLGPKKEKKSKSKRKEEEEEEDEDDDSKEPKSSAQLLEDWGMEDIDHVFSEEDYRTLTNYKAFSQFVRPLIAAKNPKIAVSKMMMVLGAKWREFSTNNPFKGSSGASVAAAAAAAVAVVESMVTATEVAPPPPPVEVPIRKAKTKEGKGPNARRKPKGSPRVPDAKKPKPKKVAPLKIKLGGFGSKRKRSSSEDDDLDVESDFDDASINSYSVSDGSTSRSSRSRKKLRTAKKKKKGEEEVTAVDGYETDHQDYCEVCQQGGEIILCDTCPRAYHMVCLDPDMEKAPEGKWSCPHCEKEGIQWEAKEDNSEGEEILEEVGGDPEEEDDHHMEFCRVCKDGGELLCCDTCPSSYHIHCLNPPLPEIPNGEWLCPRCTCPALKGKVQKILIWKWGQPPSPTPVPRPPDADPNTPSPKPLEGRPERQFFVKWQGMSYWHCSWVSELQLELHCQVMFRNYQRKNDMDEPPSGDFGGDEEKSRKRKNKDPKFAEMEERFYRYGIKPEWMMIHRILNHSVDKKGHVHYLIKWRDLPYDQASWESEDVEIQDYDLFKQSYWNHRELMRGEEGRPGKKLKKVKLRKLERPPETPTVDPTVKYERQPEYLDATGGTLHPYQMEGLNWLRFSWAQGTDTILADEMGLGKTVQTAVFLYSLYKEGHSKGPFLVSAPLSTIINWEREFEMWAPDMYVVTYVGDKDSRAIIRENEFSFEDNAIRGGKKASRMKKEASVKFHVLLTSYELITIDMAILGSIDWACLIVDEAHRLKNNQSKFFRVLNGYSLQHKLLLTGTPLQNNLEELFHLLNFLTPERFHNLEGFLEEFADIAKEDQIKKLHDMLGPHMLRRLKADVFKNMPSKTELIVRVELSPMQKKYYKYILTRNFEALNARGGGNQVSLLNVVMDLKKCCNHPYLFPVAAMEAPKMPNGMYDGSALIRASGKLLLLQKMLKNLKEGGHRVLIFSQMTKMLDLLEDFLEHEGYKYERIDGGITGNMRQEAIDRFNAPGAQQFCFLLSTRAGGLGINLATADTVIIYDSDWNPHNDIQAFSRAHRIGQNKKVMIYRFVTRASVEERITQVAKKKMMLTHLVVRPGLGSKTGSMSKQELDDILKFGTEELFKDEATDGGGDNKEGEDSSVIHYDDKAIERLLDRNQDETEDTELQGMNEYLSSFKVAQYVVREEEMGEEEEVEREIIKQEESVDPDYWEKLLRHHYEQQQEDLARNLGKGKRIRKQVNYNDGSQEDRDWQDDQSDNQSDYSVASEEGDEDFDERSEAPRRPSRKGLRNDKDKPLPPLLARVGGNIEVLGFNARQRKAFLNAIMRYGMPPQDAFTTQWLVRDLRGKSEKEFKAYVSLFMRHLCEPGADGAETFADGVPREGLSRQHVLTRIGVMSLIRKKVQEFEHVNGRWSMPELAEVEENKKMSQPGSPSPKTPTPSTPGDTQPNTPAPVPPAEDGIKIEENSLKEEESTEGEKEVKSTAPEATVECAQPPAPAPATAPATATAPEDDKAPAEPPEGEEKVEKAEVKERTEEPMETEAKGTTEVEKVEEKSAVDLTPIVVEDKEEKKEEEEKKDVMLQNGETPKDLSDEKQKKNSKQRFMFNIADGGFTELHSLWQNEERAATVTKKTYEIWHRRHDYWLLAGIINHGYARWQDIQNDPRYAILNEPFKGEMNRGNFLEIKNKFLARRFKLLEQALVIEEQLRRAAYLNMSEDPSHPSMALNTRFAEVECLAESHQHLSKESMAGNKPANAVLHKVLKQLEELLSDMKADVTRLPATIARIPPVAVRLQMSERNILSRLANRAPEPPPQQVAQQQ
UniProt O09106: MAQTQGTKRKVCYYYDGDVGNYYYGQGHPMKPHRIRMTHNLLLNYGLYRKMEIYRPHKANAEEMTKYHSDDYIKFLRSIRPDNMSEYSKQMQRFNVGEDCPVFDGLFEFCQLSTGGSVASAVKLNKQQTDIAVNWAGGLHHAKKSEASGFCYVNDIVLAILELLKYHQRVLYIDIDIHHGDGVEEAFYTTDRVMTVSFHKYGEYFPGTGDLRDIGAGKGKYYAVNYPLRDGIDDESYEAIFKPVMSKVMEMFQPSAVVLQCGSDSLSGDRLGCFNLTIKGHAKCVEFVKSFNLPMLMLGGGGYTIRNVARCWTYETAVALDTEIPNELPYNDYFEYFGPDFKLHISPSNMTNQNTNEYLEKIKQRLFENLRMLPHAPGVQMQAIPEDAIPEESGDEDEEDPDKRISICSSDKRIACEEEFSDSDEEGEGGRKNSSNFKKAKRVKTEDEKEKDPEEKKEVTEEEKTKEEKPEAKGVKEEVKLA
UniProt P70288: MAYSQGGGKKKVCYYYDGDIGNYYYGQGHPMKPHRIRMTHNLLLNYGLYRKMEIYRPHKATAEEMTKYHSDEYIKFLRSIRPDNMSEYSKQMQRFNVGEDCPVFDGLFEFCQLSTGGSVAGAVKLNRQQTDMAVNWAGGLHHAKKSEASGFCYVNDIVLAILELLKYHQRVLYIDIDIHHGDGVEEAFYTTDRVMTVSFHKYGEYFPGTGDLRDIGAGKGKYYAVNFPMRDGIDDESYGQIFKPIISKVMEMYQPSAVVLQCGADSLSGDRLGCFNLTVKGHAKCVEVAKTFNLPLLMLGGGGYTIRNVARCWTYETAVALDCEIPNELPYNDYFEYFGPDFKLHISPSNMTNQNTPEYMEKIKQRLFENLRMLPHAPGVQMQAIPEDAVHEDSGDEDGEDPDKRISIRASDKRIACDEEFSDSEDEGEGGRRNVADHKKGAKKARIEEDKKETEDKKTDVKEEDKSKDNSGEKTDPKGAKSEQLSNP
UniProt B7ZCR6: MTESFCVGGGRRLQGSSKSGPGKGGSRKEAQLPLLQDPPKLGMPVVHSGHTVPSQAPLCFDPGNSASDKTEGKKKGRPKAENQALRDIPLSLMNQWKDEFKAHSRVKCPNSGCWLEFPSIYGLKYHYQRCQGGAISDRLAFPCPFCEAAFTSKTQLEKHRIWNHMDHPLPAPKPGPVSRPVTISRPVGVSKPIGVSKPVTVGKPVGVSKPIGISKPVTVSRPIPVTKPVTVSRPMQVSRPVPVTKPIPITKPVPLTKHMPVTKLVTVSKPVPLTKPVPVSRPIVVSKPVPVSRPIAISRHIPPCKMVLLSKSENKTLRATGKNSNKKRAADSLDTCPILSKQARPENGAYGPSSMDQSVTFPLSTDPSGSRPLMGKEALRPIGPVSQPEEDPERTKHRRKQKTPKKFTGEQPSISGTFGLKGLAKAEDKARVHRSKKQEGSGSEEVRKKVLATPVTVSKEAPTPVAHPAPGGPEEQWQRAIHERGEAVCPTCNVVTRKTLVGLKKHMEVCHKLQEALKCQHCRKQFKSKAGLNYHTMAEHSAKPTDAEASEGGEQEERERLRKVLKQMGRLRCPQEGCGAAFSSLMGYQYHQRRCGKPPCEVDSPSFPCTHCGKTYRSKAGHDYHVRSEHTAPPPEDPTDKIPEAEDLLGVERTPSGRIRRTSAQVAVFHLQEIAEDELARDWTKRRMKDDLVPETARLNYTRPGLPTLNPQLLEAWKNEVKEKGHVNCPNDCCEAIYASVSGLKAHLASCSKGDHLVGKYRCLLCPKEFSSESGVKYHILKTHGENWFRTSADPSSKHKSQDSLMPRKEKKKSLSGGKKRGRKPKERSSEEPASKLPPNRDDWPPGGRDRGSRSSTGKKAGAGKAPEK
UniProt Q9Z2E1: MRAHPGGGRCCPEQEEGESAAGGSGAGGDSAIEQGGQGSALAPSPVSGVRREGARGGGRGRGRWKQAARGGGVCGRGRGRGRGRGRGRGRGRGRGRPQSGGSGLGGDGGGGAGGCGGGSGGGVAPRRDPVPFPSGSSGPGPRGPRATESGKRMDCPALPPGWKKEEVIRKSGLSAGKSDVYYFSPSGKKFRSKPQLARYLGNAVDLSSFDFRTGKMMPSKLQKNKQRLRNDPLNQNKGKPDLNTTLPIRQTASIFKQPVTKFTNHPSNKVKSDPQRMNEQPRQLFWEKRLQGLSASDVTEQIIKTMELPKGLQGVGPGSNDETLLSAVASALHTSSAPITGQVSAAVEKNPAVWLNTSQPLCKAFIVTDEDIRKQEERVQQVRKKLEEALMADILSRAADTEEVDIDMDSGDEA
UniProt Q8VHR5: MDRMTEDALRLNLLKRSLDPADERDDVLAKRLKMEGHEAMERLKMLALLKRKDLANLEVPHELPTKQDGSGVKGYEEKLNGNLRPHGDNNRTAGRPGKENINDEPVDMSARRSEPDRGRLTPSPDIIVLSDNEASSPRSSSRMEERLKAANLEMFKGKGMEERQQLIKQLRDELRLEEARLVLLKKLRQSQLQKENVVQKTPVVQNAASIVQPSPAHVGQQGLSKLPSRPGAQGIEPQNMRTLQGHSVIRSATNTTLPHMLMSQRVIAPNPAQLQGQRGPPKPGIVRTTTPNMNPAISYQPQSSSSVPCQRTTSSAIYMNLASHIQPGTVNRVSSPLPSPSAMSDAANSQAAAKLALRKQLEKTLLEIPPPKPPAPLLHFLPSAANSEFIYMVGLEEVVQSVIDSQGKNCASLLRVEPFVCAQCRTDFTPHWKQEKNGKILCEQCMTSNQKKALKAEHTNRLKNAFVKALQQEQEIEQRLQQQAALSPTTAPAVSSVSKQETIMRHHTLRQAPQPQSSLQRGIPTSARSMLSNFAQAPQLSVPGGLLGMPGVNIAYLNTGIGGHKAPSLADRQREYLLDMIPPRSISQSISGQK

Holding throughout (experiment): affinity purification with mass spectrometry; 2 mg ES cell nuclear extract with GFP-Trap or FLAG-sepharose beads, 50 μg/ml ethidium bromide, Buffer C (300 mM NaCl, 20 mM HEPES/KOH pH 7.9, 20% glycerol, 2 mM MgCl2, 0.2 mM EDTA), 0.1% NP-40; on-bead digestion; label-free quantitative LC-MS/MS, triplicate; wild-type cells, repeated in Mbd3-null cells
Test [1] deals with Mta1-Avi-3xFLAG (mouse (endogenous in ES cells)) (UniProt Q8K4B0).
The target of test [2] is Mta2-GFP (mouse (endogenous in ES cells)) (UniProt Q9R190).
Test [3] deals with Mta3-Avi-3xFLAG (mouse (endogenous in ES cells)).

Results are given in words; binding and its absence hold for the method and conditions named. Binding seen in cells or lysates may run through a third protein. Here binding means that the protein was enriched with, or labelled near, the bait; the list need not be complete.

Consider Chd4 (from UniProt Q6PDQ2 1-1915), for which the binding result in test [1] and in test [2] was “binds” in each case.
For the molecule Hdac1 (from UniProt O09106 1-482), the binding entry in test [1] and in test [2] was “binds” each time.
As for Mta2 (from UniProt Q9R190 1-668), the binding entry in test [1] is on record as “binds”.
In the case of Hdac2 (from UniProt P70288 1-488), the binding entry in test [1] and in test [2] was “binds” throughout.
Mta1 (from UniProt Q8K4B0 1-715): the binding result in test [2] was “binds”.
For Gatad2a (from UniProt Q8CHY6 1-629), the binding result in test [1] is recorded as “binds”.
Take Zfp512b (from UniProt B7ZCR6): the binding result in test [2] is listed as “binds”.
Turning to Mbd2 (from UniProt Q9Z2E1 1-414), the binding result in test [1] and in test [2] was “binds” in each case.
Take Gatad2b (from UniProt Q8VHR5 1-594): the binding entry in test [1] and in test [2] was “binds” throughout.

B1: Zfp296 (protein, UniProt E9Q6W4 1-445)
chain: MSRRKAGRVPRRVDPDTDTDIEMPDLVMDVKPDLDLRSLAQGPWIARDMPISDVKRQLQTASRPLGAPSTCAPRMPLSSKSSDRQPWTDKHPDLLTCGRCGKIFPLGAIIAFMDHKKQGCQLLQVSDPISESKELKALSCLQCGRQYTSPWKLLCHAQWDHGLCIYQTQHLDTPEAPLLGLAEVAAAMSAVAVVAPVESKPPPVSSAARRSPTCDVCKKTLSSFSNLKVHMRSHTGERPYSCDQCSYACAQSSKLNRHKKTHRQLAPGSPSTSASSRGVSPAAPPEPAAYAAAPASTLPSQTVEKAGAAATAGVQEPGAPGSGAQGGPGFVGWGAPAKVERTDPVKIEKTAPRKSHGPGGKCEFCGKSFTNSSNLTVHRRSHTGERPYTCDQCPYACAQSSKLNRHRRTHGLGTGKTVKCPHCLVPFGLQATLDKHLRQKHPEMA
Turning to B1, the binding entry in test [1], in test [2] and in test [3] was “binds” each time.

B2: Cdk2ap1 (protein, UniProt O35207 1-114)
chain: MSYKPNLTAHMPAAALNAGSVHSPSTSMATSSQYRQLLSDYGPPSLGYTQGTGNSQVPQSKYAELLAIIEELGKEIRPTYAGSKSAMERLKRGIIHARSLVRECLAETERNARS
With B2, the binding entry in test [1], in test [2] and in test [3] was “binds” each time.

B3: Pwwp2a (protein, UniProt Q69Z61 1-730)
chain: MAAVAAEAAATAASPGEGGAGEAEPELEPIPGSEAGTPLPVTATEAAVPDGEADGRQSAPQADEQPLPPPPPPPPPGELADSSEAEEAKPPEPAAVPVSPPEQPPAAPEQPEDAPRPPPAPALVPPAGGDSAVSHLIPGSEVRVTLDHIIEDALVVSFRLGEKLFSGVLMDLSKRFGPHGIPVTVFPKREYKDKPDAMQLQSTTFQEGIEVKQEVNGAVPDDLSPVPPPERLWASKPPPLFHEGAPYPPPLFIRDTYNQSIPQPPPRKIKRPKRKMYREEPTSIMNAIKLRPRQVLCDKCKNSVVAEKKEIRKGSSDSSRYEDKKRRNDSVATVNKKLKTDHKVDGKNQNESQRRNTVVRVSSIAHSRGRVVKVSAQANTSKAQLNTKKVLQSKNMDHAKAREVLKIAKEKAQKKQSETSTSKTAHAKVHFTRRYQSPSSGSLPPRVRLKPQRYRNEENDSSLKTGLEKIRSGKLAPKPQSRCTSTRSAGEAPSEKPSPSEGPEESAGEVQDTSRVRVPGEQEELRMLGKKGSKSSISVYLTLNQETSDSSSASVCSIDSMDDLKSSNSECSSSESFVFPPGCMHAPSASSTSTSFSSKEENSLRNSLKMKIFSKNVSKCITPDGRTICVGDIVWAKIYGFPWWPARILTITVSRKDNGLLARQEARISWFASPTTSSLALSQLSPFLENFQLRFNKKRKGLYRRAITEAAKAAKQLTPEVRALLTQFET
B3: the binding result in test [1] is “binds”.

B4: Zfp219 (protein, UniProt Q6IQX8 1-726)
chain: MEGSRPRILVGHLEPSPPAFDGELDLQRYSNGPGVSGTPGPGSPGMGAVGWSETRAGERRFPCPVCGKRFRFNSILALHLRAHPGAQAFQCPHCGHRAAQRALLRSHLRTHQPERPRSPAARLLLELEERALLREARLGRARSSGGMQSSPAAEGLARPQVPSSSAFRCPFCKGKFRTSAERERHLHILHRPWKCSLCSFGSSQEEELLHHSLTAHGASERPLAATSTPEPPPPPQQEPRSALEPEPEPEPRPEPDREANPAPTPAPPEEPPAPPEFRCQVCGQSFTQSWFLKGHMRKHKASFDHACPVCGRCFKEPWFLKNHMKVHTSKLGPLRAPGPGSAPARAPQPPDLSLLAYEPLGPALLLAPAPAPAERREPPSLLGYLSVRAGEVRPNGEGADPGGGRSYGGFRPLPSALPNRARRHRTEEPEEEEEVVEAEEESWARGRSLGSLTSLHPNPGEGSGQPAPAAGTQARSTATQEENGLLVGGTRSEAGRGATGKDCPFCGKSFRSAHHLKVHLRVHTGERPYKCPHCDYAGTQSGSLKYHLQRHHREQRSSAGPGPPPEPPPPSQRGSLQPQSGAKPTQASATWVEGTASTRPPSSSTGPGSRRKPASPGRTLRNGRGGEAEPLDLSLRAGPGGEAGAGGALHRCLFCPFATGAPELMALHLQVHHSRRARGRRQPRADTSPTYVRAPSGETPPSPPLEEEGSPGLSRSGEAGLGGQER
For the molecule B4, in test [2], the binding result is listed as “binds”.
